For at least one compound, name, drawing or mass did not settle the structure.
Target: T1, SIRT1 (Homo sapiens, UniProt Q96EB6)
T1 sequence (Q96EB6 1-747): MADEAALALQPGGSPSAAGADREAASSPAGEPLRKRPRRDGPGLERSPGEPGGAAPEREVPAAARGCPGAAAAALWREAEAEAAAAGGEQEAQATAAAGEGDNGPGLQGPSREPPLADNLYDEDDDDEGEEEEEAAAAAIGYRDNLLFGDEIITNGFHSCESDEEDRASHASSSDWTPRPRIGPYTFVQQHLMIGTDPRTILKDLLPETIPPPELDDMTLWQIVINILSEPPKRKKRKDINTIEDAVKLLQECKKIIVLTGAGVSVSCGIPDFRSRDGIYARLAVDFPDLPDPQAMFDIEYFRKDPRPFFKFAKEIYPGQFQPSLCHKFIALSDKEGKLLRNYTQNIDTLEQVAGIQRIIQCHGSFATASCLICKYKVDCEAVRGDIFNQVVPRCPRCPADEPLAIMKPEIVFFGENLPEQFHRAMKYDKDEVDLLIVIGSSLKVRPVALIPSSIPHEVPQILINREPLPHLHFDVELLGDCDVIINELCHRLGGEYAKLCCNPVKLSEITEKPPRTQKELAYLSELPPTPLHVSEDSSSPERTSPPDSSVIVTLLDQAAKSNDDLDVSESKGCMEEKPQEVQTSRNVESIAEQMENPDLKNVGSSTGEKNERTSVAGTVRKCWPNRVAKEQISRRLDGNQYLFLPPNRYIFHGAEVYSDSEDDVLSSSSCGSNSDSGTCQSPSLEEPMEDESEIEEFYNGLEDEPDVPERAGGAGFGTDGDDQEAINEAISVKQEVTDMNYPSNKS
Assay: Trp mass spectrometry assay of SIRT1 activity
Format: biochemical
Details: Trp assay; concentration giving 150% activation of SIRT1
From the text: Mass spectrometry based assays were used to identify modulators of SIRT1 activity. The TAMRA based assay utilized a peptide having 20 amino acid residues as follows: Ac-EE-K(biotin)-[…](Ac)NleSTEG-K(5TMR)-EE-NH2 (SEQ ID NO: 1), wherein K(Ac) is an acetylated lysine residue and Nle is a norleucine. The peptide was labeled with the fluorophore 5TMR (excitation 540 nm/emission 580 nm) at the C-terminus. The sequence of the peptide substrate was based on p53 with several modifications. In addition, the methionine residue naturally present in the sequence was replaced with the norleucine because the methionine may be susceptible to oxidation during synthesis and purification. The Trp based assay utilized a peptide having an amino acid residues as follows: Ac-R-H-K-K(Ac)-W-NH2 (SEQ ID NO: 2).
The Trp mass spectrometry assay was conducted as follows. 0.5 μM peptide substrate and 120 μM βNAD^+ were incubated with 10 nM SIRT1 for 25 minutes at 25° C. in a reaction buffer (50 mM HEPES pH 7.5, […], 1 mM DTT, 0.05% BSA). The SIRT1 protein was obtained by cloning the SirT1 gene into a T7-promoter containing vector, which was then expressed in BL21(DE3) bacterial cells and purified as described in further detail below. Test compound was added at varying concentrations to this reaction mixture and the resulting reactions were monitored. After the 25 minute incubation with SIRT1, 10 μL of 10% formic acid was added to stop the reaction. The resulting reactions were sealed and frozen for later mass spec analysis. The relative SIRT1 activity was then determined by measuring the amount of O-acetyl-ADP-ribose (OAADPR) formed (or, alternatively, the amount of deacetylated Trp peptide generated) by the NAD-dependent sirtuin deacetylation reaction in the presence of varying concentrations of the test compound versus control reactions lacking the test compound. The degree to which the test agent activated deacetylation by SIRT1 was expressed as EC1.5 (i.e., the concentration of compound required to increase SIRT1 activity by 50% over the control lacking test compound), and Percent Maximum Activation (i.e., the maximum activity relative to control (100%) obtained for the test compound).
A control for inhibition of sirtuin activity was conducted by adding 1 μL of 500 mM nicotinamide as a negative control at the start of the reaction (e.g., permits determination of maximum sirtuin inhibition). A control for activation of sirtuin activity was conducted using 10 nM of sirtuin protein, with 1 μL of DMSO in place of compound, to determine the amount of deacetylation of the substrate at a given time point within the linear range of the assay. This time point was the same as that used for test compounds and, within the linear range, the endpoint represents a change in velocity.
For the above assay, SIRT1 protein was expressed and purified as follows. The SirT1 gene was cloned into a T7-promoter containing vector and transformed into BL21(DE3). The protein was expressed by induction with 1 mM IPTG as an N-terminal His-tag fusion protein at 18° C. overnight and harvested at 30,000×g. Cells were lysed with lysozyme in lysis buffer (50 mM Tris-HCl, 2 mM Tris[2-carboxyethyl]phosphine (TCEP), 10 μM ZnCl2, 200 mM NaCl) and further treated with sonication for […] for complete lysis. The protein was purified over a Ni-NTA column (Amersham) and fractions containing pure protein were pooled, concentrated and run over a sizing column (Sephadex S200 26/60 global). The peak containing soluble protein was collected and run on an Ion-exchange column (MonoQ). Gradient elution (200 mM-500 mM NaCl) yielded pure protein. This protein was concentrated and dialyzed against dialysis buffer (20 mM Tris-HCl, 2 mM TCEP) overnight. The protein was aliquoted and frozen at −80° C. until further use.

SMILES | Trp EC1.5 (μM)
CO[C@H]1CCN(c2ccc3ncc(C(=O)Nc4ccncn4)n3n2)C1 [Compound 973, (S)-6-(3-methoxypyrrolidin-1-yl)-N-(pyrimidin-4-yl)imidazo[1,2-b]pyridazine-3-carboxamide] | C (EC1.5>25 μM)
O=C(Nc1ccccn1)c1cnc2ccc(N3CC[C@H](O)C3)nn12 [Compound 981] | B (EC1.5 1-25 μM)
CC1(C)CCN(c2ccc3ncc(C(=O)Nc4cncc(F)c4)n3n2)C1 [Compound 956] | B (EC1.5 1-25 μM)
CN1CCN(c2ccc3ncc(C(=O)Nc4ccccn4)n3n2)CC1 [Compound 948] | B (EC1.5 1-25 μM)
O=C(Nc1ccncc1F)c1cnc2ccc(N3CCC(F)(F)CC3)nn12 [Compound 963] | B (EC1.5 1-25 μM)
O=C(Nc1ccncn1)c1cnc2ccc(N3CCCC3C(F)(F)F)nn12 (stereo not drawn) [Compound 970, N-(pyrimidin-4-yl)-6-(2-(trifluoromethyl)pyrrolidin-1-yl)imidazo[1,2-b]pyridazine-3-carboxamide] | A (EC1.5<1 μM)
CN1CCN(c2ccc3ncc(C(=O)Nc4cccnn4)n3n2)CC1 [Compound 950] | C (EC1.5>25 μM)
CN1CCN(c2ccc3ncc(C(=O)Nc4ccc(F)cn4)n3n2)CC1 [Compound 947] | B (EC1.5 1-25 μM)
CN1CCN(c2ccc3ncc(C(=O)Nc4cncc(F)c4)n3n2)CC1 [Compound 951] | C (EC1.5>25 μM)
CC1CCN(c2ccc3ncc(C(=O)Nc4cncc(F)c4)n3n2)C1 (stereo not drawn) [Compound 979] | A (EC1.5<1 μM)
O=C(Nc1cccnn1)c1cnc2ccc(N3CC[C@H](O)C3)nn12 [Compound 984] | B (EC1.5 1-25 μM)
O=C(Nc1cccnn1)c1cnc2ccc(N3CCCC3C(F)(F)F)nn12 (stereo not drawn) [Compound 968] | A (EC1.5<1 μM)
O=C(Nc1cccnc1)c1cnc2ccc(N3CCC[C@H](F)C3)nn12 [Compound 987] | B (EC1.5 1-25 μM)

More lines, now with the values ahead:

Trp EC1.5 (μM) | SMILES
A (EC1.5<1 μM) | O=C(Nc1ccccn1)c1cnn2ccc(N3CCCC3C(F)(F)F)nc12 (stereo not drawn) [Compound 999]
B (EC1.5 1-25 μM) | O=C(Nc1cncc(F)c1)c1cnc2ccc(N3CCCC3C(F)(F)F)nn12 (stereo not drawn) [Compound 967]
B (EC1.5 1-25 μM) | Cc1nc(NC(=O)c2cnn3ccc(N4CCCCC4C(F)(F)F)nc23)sc1C (stereo not drawn) [Compound 965]

Same assay, conditions: concentration of test compound that results in 150% activation of SIRT1; Trp peptide substrate

SMILES | Trp EC1.5 (μM)
Cc1nc(NC(=O)c2c(C)nn3ccc(N4CCC[C@H]4C(F)(F)F)nc23)sc1C [Compound 1033] | A (EC1.5<1 μM)
Cc1nc2ccc(N3CCCC3C(F)(F)F)nn2c1C(=O)Nc1cccnn1 (stereo not drawn) [Compound 1006] | B (EC1.5 1-25 μM)
Cc1nc2ccc(N3CCC(F)(F)C3)nn2c1C(=O)Nc1cccnn1 [Compound 1005] | A (EC1.5<1 μM)
C[C@H]1CCCN1c1ccc2ncc(C(=O)Nc3cncc(F)c3)n2n1 [Compound 1059] | B (EC1.5 1-25 μM)
Cc1nn2ccc(N3CCC[C@@H]3C(F)(F)F)nc2c1C(=O)Nc1ccncn1 [Compound 1068] | B (EC1.5 1-25 μM)
O=C(Nc1cccnn1)c1cnn2ccc(N3CCCC(C(F)(F)F)C3)nc12 (stereo not drawn) [Compound 1023] | B (EC1.5 1-25 μM)
CC1CCCN1c1ccn2ncc(C(=O)Nc3cccnn3)c2n1 (stereo not drawn) [Compound 1040] | B (EC1.5 1-25 μM)
Cc1nc(NC(=O)c2cnn3ccc(N4CCCC4C)nc23)sc1C (stereo not drawn) [Compound 1038] | B (EC1.5 1-25 μM)
O=C(Nc1ccccn1)c1cnn2ccc(N3CCCC(C(F)(F)F)C3)nc12 (stereo not drawn) [Compound 1008] | B (EC1.5 1-25 μM)
C[C@H]1CCCN1c1ccc2ncc(C(=O)Nc3ccccn3)n2n1 [Compound 1053] | B (EC1.5 1-25 μM)
Cc1nc(NC(=O)c2cnn3ccc(N4CCC(C(F)(F)F)CC4)nc23)sc1C [Compound 1065] | B (EC1.5 1-25 μM)
O=C(Nc1cccnn1)c1cnn2ccc(N3CCC(C(F)(F)F)CC3)nc12 [Compound 1062] | A (EC1.5<1 μM)
Cn1cc2ccc(NC(=O)c3cnc4ccc(N5CCC[C@@H]5C(F)(F)F)nn34)cc2n1 [Compound 1020] | A (EC1.5<1 μM)
O=C(Nc1cnc2c(c1)COCC2)c1cnc2ccc(N3CCCC3C(F)(F)F)nn12 (stereo not drawn) [Compound 1095] | B (EC1.5 1-25 μM)

The remaining lines, values ahead:

Trp EC1.5 (μM) | SMILES
A (EC1.5<1 μM) | Cc1cncc(NC(=O)c2cnn3ccc(N4CCC[C@H]4C(F)(F)F)nc23)c1 [Compound 1027]
B (EC1.5 1-25 μM) | O=C(Nc1ccncn1)c1cnn2ccc(N3CCC[C@@H]3C(F)(F)F)nc12 [Compound 1093]
B (EC1.5 1-25 μM) | Cc1nc(NC(=O)c2cnn3ccc(N4CCC[C@@H]4C(F)(F)F)nc23)sc1C [Compound 1088]
B (EC1.5 1-25 μM) | O=C(Nc1cc(-c2cnco2)ccn1)c1cnn2ccc(N3CCC[C@@H]3C(F)(F)F)nc12 [Compound 1091]
A (EC1.5<1 μM) | Cc1cncc(NC(=O)c2cnn3ccc(N4CCC(C(F)(F)F)CC4)nc23)c1 [Compound 1073]
A (EC1.5<1 μM) | O=C(Nc1cccnc1)c1cnn2ccc(N3CCC(C(F)(F)F)C3)nc12 (stereo not drawn) [Compound 1012]
A (EC1.5<1 μM) | Cc1cncc(NC(=O)c2cnn3ccc(N4CCC[C@@H]4C(F)(F)F)nc23)c1 [Compound 1077]
A (EC1.5<1 μM) | O=C(Nc1cncc(F)c1)c1cnn2ccc(N3CCCC3C(F)(F)F)nc12 (stereo not drawn) [Compound 1001]
A (EC1.5<1 μM) | O=C(Nc1ccncn1)c1cnn2ccc(N3CCC[C@H]3C(F)(F)F)nc12 [Compound 1025]
A (EC1.5<1 μM) | Cc1nc(NC(=O)c2cnn3ccc(N4CCC[C@H]4C(F)(F)F)nc23)sc1C [Compound 1032, (S)-N-(4,5-dimethylthiazol-2-yl)-5-(2-(trifluoromethyl)pyrrolidin-1-yl)pyrazolo[1,5-a]pyrimidine-3-carboxamide]
A (EC1.5<1 μM) | O=C(Nc1cncc(F)c1)c1cnn2ccc(N3CCC[C@H]3C(F)(F)F)nc12 [Compound 1028]
A (EC1.5<1 μM) | O=C(Nc1cccnn1)c1cnn2ccc(N3CCC[C@H]3C(F)(F)F)nc12 [Compound 1030]
B (EC1.5 1-25 μM) | CC1CCCN1c1ccn2ncc(C(=O)Nc3cccnc3)c2n1 (stereo not drawn) [Compound 1044]
A (EC1.5<1 μM) | O=C(Nc1cncc(F)c1)c1cnn2ccc(N3CCCC(C(F)(F)F)C3)nc12 (stereo not drawn) [Compound 1009]
B (EC1.5 1-25 μM) | CC1CCCN1c1ccn2ncc(C(=O)Nc3cncc(F)c3)c2n1 (stereo not drawn) [Compound 1039]
